Results taken from PubChem BioAssay (NCATS).
Where “and” joins values, the source holds several entries; their conditions need not be identical. Equal entries are not always repeated. The shares of active, inactive and inconclusive entries below differ from those in the screen. For some assays here: Potencies beside an inconclusive call are fits to weak or partial responses and may not hold up. Calls of active or inactive are those of the source. Calls follow the shape of the dose curve; as a rule, active = well fitted curve in the direction sought with a large enough effect; inconclusive = small, poorly fitted or top-dose-only effect, or another doubt; inactive = no such curve, though single readings can be large; an effect the other way counts as inactive or inconclusive.

Key:
[1] = Cell Proliferation Assay against the TMD8 Cell Line (Caspase readout at 16 hrs) (AID 651712); conditions: TMD8 lymphoma cells, caspase activation luminescence; caspase activation: at 46.1 µM (top of the series); also: potency is read from the fitted curve at half-maximal effect
Outline: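 Apoptotic response of TMD8 cells was judged from caspase 3/7 activation following a 16 hour compound incubation at 37 °C. Luminescent signal was converted to percent activity, with DMSO set as 0% and 9.2 uM final bortezomib as 100%.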

[2] = Identifying Small Molecule Inhibitors of Pancreatic Cancer Stem Cells (A2780, Spheroid) (AID 1259357); conditions: Potency: A2780 spheroid viability; viability (percent of control): at 46.1 µM (top of the series);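 also: spheroids pre-formed over 14 days in stem cell medium on hydrogel; potency is read from the fitted curve at half-maximal effect; compound exposure lasted 48 h before the ATP luminescence read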
Outline: (§1)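 Pre-formed 14-day tumor spheroids or adherent cells dosed and incubated 48 h, 37C, 5% CO2. Viability assessed by CellTiter-Glo.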

[3] = Identifying Small Molecule Inhibitors of Pancreatic Cancer Stem Cells (Panc1, Spheroid) (AID 1259359); conditions: Panc1 spheroid cancer stem cell viability; viability, % of control: at 46.1 µM (top of the series) unless noted;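 also: compound exposure lasted 48 h before reading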; also: potency is read from the fitted curve at half-maximal effect
Outline: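 Endpoint: ATP-based luminescence, 48 h drug exposure. Bortezomib at 9.2 uM final as full-kill control; DMSO vehicle as negative control; activity normalized between vehicle and cell-free wells.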

[4] = Identifying Small Molecule Inhibitors of Pancreatic Cancer Stem Cells (Panc1, Adherent) (AID 1259362); conditions: Potency: viability unless noted; viability, % of control: at 46.1 µM (top of the series) unless noted; also: potency is read from the fitted curve at half-maximal effect;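 as to viability, % of control: compound exposure lasted 48 h before the viability read; plate controls were DMSO-treated cells for no effect and cell-free media wells for full effect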
Outline: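 Luminescent ATP readout (CellTiter-Glo) quantifies surviving cells after a 48 h drug incubation. Normalization uses DMSO wells as no inhibition and media-only wells as full inhibition; bortezomib served as positive control.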

[5] = Identifying Small Molecule Inhibitors of Pancreatic Cancer Stem Cells (A278, Adherent) (AID 1259361);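 also: viability read after 48 h compound exposure; nearly all actives have a fitted effect of over 35% in size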;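 as to viability (% of control): 100% = DMSO-treated cells and 0% = cell-free media-only wells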
Outline: as §1

[6] = P-glycoprotein substrates identified in KB-8-5-11 adenocarcinoma cell line, qHTS therapeutic library screen (AID 1346987); also: potency is read from the fitted curve at half-maximal effect; nearly all actives have a fitted effect of over 65% in size
Outline: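 KB-8-5-11: colchicine-selected sub-line of KB-3-1 over-expressing P-gp; assay medium lacked colchicine. 72 h drug exposure at 37 degree C, CellTiter-Glo.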

[7] = qHTS of pediatric cancer cell lines to identify multiple opportunities for drug repurposing: Primary screen for Rh41 cells (AID 1347108); also: nearly all actives have a fitted effect of over 70% in size; also: potency is read from the fitted curve at half-maximal effect
Outline: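 Following a 5-hour attachment period, cells at 500-1,000/well received compounds and were cultured for 48 hours. CellTiter-Glo was added and luminescence read to estimate viable, metabolically active cells.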

[8] = Cell Proliferation Assay against the TMD8 Cell Line (Caspase readout at 8 hrs) (AID 651713); conditions: TMD8 lymphoma cells, caspase activation luminescence; caspase activation: at 46.1 µM (top of the series); also: potency is read from the fitted curve at half-maximal effect
Outline: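 TMD8 cells (500/well) in phenol red-free RPMI with 5% FBS were treated with compounds for 8 h at 37C, 5% CO2. Caspase-Glo 3/7 luminescence was read after 15 min at room temperature and normalised to DMSO (0%) and 9.2 uM bortezomib (100%).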

[9] = qHTS of pediatric cancer cell lines to identify multiple opportunities for drug repurposing: Primary screen for BT-12 cells (AID 1347101); also: potency is read from the fitted curve at half-maximal effect; nearly all actives have a fitted effect of over 25% in size
Outline: (§2)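 Cells (500-1,000/well) rested 5 h, then received compounds for 48 h; metabolically active cells were measured by CellTiter-Glo luminescence. Final concentrations spanned up to 46 µM (MIPE, 11-point) or 0.59 nM-46 µM (NPC, 8-point) in primary screens, 11-point in follow-ups.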

[10] = qHTS of pediatric cancer cell lines to identify multiple opportunities for drug repurposing: Primary screen for Rh18 cells (AID 1347102); also: potency is read from the fitted curve at half-maximal effect; nearly all actives have a fitted effect of over 65% in size
Outline: as §2

[11] = Quantitative High-Throughput drug screen in 47 multiple myeloma cell lines against the NCATS MIPE library collection: JIM1_ECACC cell viability assay (AID 1918964; also: potency is read from the fitted curve at half-maximal effect)
Outline: (§3)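 We plated 500 myeloma cells per well, pinned in MIPE 4.0 compounds, and incubated for 48 hours at 37C. ATP was then quantified with CellTiter-Glo, with DMSO and media-only wells defining 100% and 0%.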

[12] = Quantitative High-Throughput drug screen in 47 multiple myeloma cell lines against the NCATS MIPE library collection: KMS20_JCRB cell viability assay (AID 1918973); conditions: CellTiter-Glo ATP, 48 h; viability (% of DMSO): at 45.8 µM (top of the series); also: potency is read from the fitted curve at half-maximal effect; nearly all actives have a fitted effect of over 45% in size
Outline: as §3

[13] = Quantitative High-Throughput drug screen in 47 multiple myeloma cell lines against the NCATS MIPE library collection: KMS21BM_JCRB cell viability assay (AID 1918974); conditions: ATP luminescence, 48 h; viability: at 45.8 µM (top of the series); also: potency is read from the fitted curve at half-maximal effect
Outline: as §3

[14] = Quantitative High-Throughput drug screen in 47 multiple myeloma cell lines against the NCATS MIPE library collection: MOLP8_DSMZ cell viability assay (AID 1918977); conditions: MOLP8 myeloma viability, CellTiter-Glo ATP luminescence, 48 h; viability (% of control): at 45.8 µM (top of the series); also: potency is read from the fitted curve at half-maximal effect; nearly all actives have a fitted effect of over 45% in size
Outline: (§4)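 Plated at 500 cells per well, myeloma lines received MIPE 4.0 compounds by pin tool. Following 48 h culture at 37 °C, CellTiter-Glo luminescence gave viability relative to DMSO and media-only controls.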

[15] = Quantitative High-Throughput drug screen in 47 multiple myeloma cell lines against the NCATS MIPE library collection: L363_DSMZ cell viability assay (AID 1918984); conditions: L363 myeloma viability, CellTiter-Glo ATP luminescence, 48 h; viability (% of control): at 45.8 µM (top of the series); also: potency is read from the fitted curve at half-maximal effect; nearly all actives have a fitted effect of over 40% in size
Outline: as §4

HEK293 = test: Cytotoxic Profiling of Annotated Libraries Using Quantitative High-Throughput Screening (AID 1296008); conditions: Five cell lines viability, CellTiter-Glo ATP luminescence, 48-72 h; max response: hits give low values; also: potency is read from the fitted curve at half-maximal effect; nearly all actives have a fitted effect of over 60% in size
Outline: (§5)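 Cytotoxicity was measured as CellTiter-Glo ATP luminescence, read after 10 min at room temperature. Compound treatment of the cells lasted 48 or 72 hr at 37 degrees Celsius in a qHTS format.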

[16] = Identifying Small Molecule Inhibitors of Pancreatic Cancer Stem Cells (SN12C, Spheroid) (AID 1259360); conditions: Potency: SN12C spheroid viability
Outline: as §1

[17] = qHTS of pediatric cancer cell lines to identify multiple opportunities for drug repurposing: Primary screen for Rh30 cells (AID 1347107); also: potency is read from the fitted curve at half-maximal effect; nearly all actives have a fitted effect of over 75% in size
Outline: as §2

[18] = Quantitative High-Throughput drug screen in 47 multiple myeloma cell lines against the NCATS MIPE library collection: LP1_DSMZ cell viability assay (AID 1918982); also: potency is read from the fitted curve at half-maximal effect; nearly all actives have a fitted effect of over 35% in size
Outline: as §4

CRL-7250 = normal cell line; test: Cytotoxic Profiling of Annotated Libraries Using Quantitative High-Throughput Screening (AID 1296008); conditions: Five cell lines viability, CellTiter-Glo ATP luminescence, 48-72 h; max response: hits give low values; also: potency is read from the fitted curve at half-maximal effect; nearly all actives have a fitted effect of over 60% in size
Outline: as §5

CCC1(O)CC2CN(CCc3c([nH]c4ccccc34)[C@@](C(=O)OC)(c3cc4c(cc3OC)N(C=O)[C@H]3[C@](O)(C(=O)OC)[C@H](OC(C)=O)[C@]5(CC)C=CCN6CC[C@]43[C@@H]65)C2)C1 (some centres undefined)
Potency [1]: inconclusive: 0.0662 µM [activator, full curve, poor fit] | Potency [2]: inconclusive: 0.372 µM [cytotoxic, full curve] | Potency [3]: inconclusive: 0.0033 µM [cytotoxic, full curve, poor fit] | Potency [4]: active: 0.0026 µM

Oc1cn2c(n1)Nc1ccc(Cl)c(Cl)c1C2
Potency [2]: inconclusive: 0.001 µM | Potency [3]: inconclusive: 0.0015 µM [cytotoxic, full curve, poor fit] | IC50 (viability decrease) [5]: inactive | Potency [6]: active: 18.4 nM and active: 20.6 nM | Potency [7]: inactive

S=C(NCc1ccc2c(c1)OCO2)N1CCN(c2ncnc3c2oc2ccccc23)CC1
Potency [1]: inactive | Potency [8]: inconclusive: 23.5 µM [activator, single point] | Potency [2]: active: 16.6 µM | Potency [3]: active: 7.43 µM | Potency [4]: inconclusive: 14.8 µM [cytotoxic, partial curve, poor fit] | Potency [6]: inconclusive: 303 nM [inhibitor, full curve] and inconclusive: 2.59 µM [inhibitor, full curve] | Potency [9]: inconclusive: 1.57 µM [cytotoxic, full curve] | Potency [10]: inconclusive: 15.2 µM [cytotoxic, full curve] | Potency [7]: inconclusive: 12.1 µM [cytotoxic, partial curve] | Potency [11]: inconclusive: 17.1 µM [cytotoxic, partial curve, poor fit] | Potency [12]: inconclusive: 0.303 µM [cytotoxic, full curve, poor fit] | Potency [13]: active: 1.21 µM | Potency [14]: inconclusive: 17.1 µM [cytotoxic, partial curve] | Potency [15]: active: 0.605 µM | Potency (HEK293): active: 340 nM and active: 4.11 µM

COc1cc2ncn(-c3cc(OCc4ccccc4C(F)(F)F)c(C(N)=O)s3)c2cc1OC
Potency [1]: inconclusive: 0.935 µM [activator, full curve, poor fit] | Potency [2]: inconclusive: 1.66 µM [cytotoxic, full curve, poor fit] | Potency [3]: inconclusive: 0.166 µM [cytotoxic, full curve, poor fit] | Potency [16]: inactive | Potency [4]: inconclusive: 0.935 µM [cytotoxic, full curve] | Potency [9]: active: 21.7 µM | Potency [10]: inconclusive: 16.6 µM [cytotoxic, partial curve] | Potency [17]: inconclusive: 10.5 µM [cytotoxic, partial curve] | Potency [7]: inconclusive: 2.96 µM [cytotoxic, partial curve] | Potency [11]: active: 0.296 µM | Potency [12]: inconclusive: 6.62 µM [cytotoxic, partial curve, poor fit] | Potency [13]: active: 1.32 µM | Potency [14]: inconclusive: 18.7 µM [cytotoxic, partial curve, poor fit] | Potency [18]: active: 0.935 µM | Potency [15]: inconclusive: 0.0332 µM [cytotoxic, full curve] | Potency (CRL-7250): inconclusive: 14.8 µM [inhibitor, partial curve] | Potency (HEK293): active: 469 nM

O=c1cc(C2=CC=CC3Sc4ccccc4SC23)oc(N2CCOCC2)c1 (centres undefined)
Potency [2]: inconclusive: 37.2 µM [cytotoxic, single point] | viability, % of control [3]: inconclusive: 77.4% | IC50 (viability decrease) [5]: inconclusive: 26.4 µM [cytotoxic, single point]

CS(=O)(=O)c1cccc(CNc2nc(Nc3ccc4c(c3)CCC(=O)N4)ncc2C(F)(F)F)c1
Potency [2]: inconclusive: 1.32 µM [cytotoxic, full curve, poor fit] | Potency [3]: inconclusive: 6.62 µM [cytotoxic, partial curve, poor fit] | viability, % of control [4]: inconclusive: 93% | Potency [9]: inconclusive: 21.7 µM [cytotoxic, partial curve] | Potency [10]: inconclusive: 5.26 µM [cytotoxic, partial curve] | Potency [17]: inconclusive: 13.2 µM [cytotoxic, partial curve] | Potency [7]: inconclusive: 18.7 µM [cytotoxic, partial curve] | Potency [11]: inconclusive: 3.72 µM [cytotoxic, partial curve, poor fit] | Potency [12]: active: 14.8 µM | Potency [13]: inconclusive: 5.26 µM [cytotoxic, partial curve, poor fit] | Potency [14]: inconclusive: 26.4 µM [cytotoxic, single point] | Potency [18]: active: 18.7 µM | Potency [15]: active: 6.62 µM | Potency (CRL-7250): inconclusive: 16.6 µM [inhibitor, partial curve] and inconclusive: 29.1 µM [inhibitor, single point] | Potency (HEK293): active: 18400 nM
